The values below come from the supplement of paper PMC4683952.

The list shows a part of the results. Cut-off read from the data, not from the text of the source: active = 2 or more and inactive = the rest. Repeats in this data set agree poorly, so a single value says little.

The assay concerns Lgr5 (MarsCy1-Lgr5-EGFP, U2OS). As to the kind of experiment: cell-surface Lgr5 expression (SCi1 fluorescence, background-subtracted) relative to WT DMSO (fold of DMSO control); higher = more Lgr5 at the plasma membrane. The settings on record: U2OS MarsCy1-Lgr5-EGFP stable; treatment time: overnight; library: ActiProbe-5K (TimTec); 25 µM.
As to `CN(C1CCS(=O)(=O)C1)S(=O)(=O)c1ccc(F)cc1` (stereo not given), the “cell-surface Lgr5 expression” value is inactive: 1.11. Take `O=S(=O)(c1ccc(OC(F)(F)F)cc1)N1CCN(c2nsc3ccccc23)CC1`: the “cell-surface Lgr5 expression” value is inactive: 0.903.

Take `Cc1cc(S(=O)(=O)NC2CC2)c(C)s1`: the “cell-surface Lgr5 expression” value is inactive: 1.03. For `CCOC(=O)C1C(=O)NCC2CCCC21` (stereo not given) the value was inactive: 0.924; for `Clc1cc(/N=C\c2ccc3c(c2)OCO3)ccc1Br`, inactive: 1.15. For the compound `N#Cc1sc2nc(C34CC5CC(CC(C5)C3)C4)ccc2c1N`, the “cell-surface Lgr5 expression” value was inactive: 1.24. The same measure for `COc1nc(OCC#N)nc(N2CCOCC2)n1`: inactive: 1.43; for `O=C(O)c1csc2c1CCCC2`: inactive: 1.06.

On to `CC1(C)CC(=O)C2=C(C1)OC(N)=C(C#N)C21CCC2(CC1)OCCO2`, for which the “cell-surface Lgr5 expression” value was inactive: 1.2. For `FC(F)Oc1ccc(/C=C\c2nnc(-c3ccncc3)o2)cc1` the value was inactive: 1.04. Turning to `Brc1ccc(-c2noc(Cc3cccs3)n2)o1`, the “cell-surface Lgr5 expression” value is inactive: 1.12.

In the case of `c1csc(-c2nc3cnccn3c2NC2CCCC2)c1`, the “cell-surface Lgr5 expression” value is inactive: 0.956.

For `CCOc1ccc2c(c1)-c1c(ssc1=S)C(C)(C)N2`, the “cell-surface Lgr5 expression” value was inactive: 1.75. The same measure for `Oc1ccc(Br)c(/C=N\c2ccc(-c3ccc(/N=C\c4cc(Br)ccc4O)cc3)cc2)c1`: inactive: 1.03. In the case of `Brc1ccc2nc(-c3ccccc3)cn2c1`, the “cell-surface Lgr5 expression” value is inactive: 1.41. For `Brc1ccc(/C=N/Nc2nc(N3CCOCC3)nc(N3CCOCC3)n2)o1` the value was inactive: 1.11; for `c1cncc(-c2noc(-c3ccc(-c4nc(-c5cccnc5)no4)cc3)n2)c1`, inactive: 1; for `COc1cc(Cl)c(OC)cc1N`, inactive: 1.28. The same measure for `Nc1c(C(=O)c2ccc(Br)s2)oc2ccc(Br)cc12`: inactive: 1.34; for `COc1cc(CCC(C)O)c(OC)c2c1OCO2` (stereo not given): inactive: 1.23; for `Nc1nc(=S)n2c(n1)oc1ccccc12`: inactive: 1.42. For `Cc1[nH]c2ccccc2c1/C=N/Nc1nc2ccccc2[nH]1`, the “cell-surface Lgr5 expression” value is inactive: 1.04. For `C=CCNC(=O)n1cc([N+](=O)[O-])cn1` the value was inactive: 1.15. The same measure for `COC(=O)c1nnc(N)[nH]1`: inactive: 1.25; for `CC1=CC(c2ccoc2)c2c(oc(N)c(C#N)c2=O)S1` (stereo not given): inactive: 1.26. `NS(=O)(=O)c1ccc(NC(=S)Nc2ccc(F)cc2)cc1`: the “cell-surface Lgr5 expression” value is inactive: 0.897. Take `CCC1CC(O)C(C)C(C)S1` (stereo not given): the “cell-surface Lgr5 expression” value was inactive: 1.13. For `Oc1ccc(Sc2ccc(O)cc2)cc1` the value was inactive: 0.848. The same measure for `N#CC1=C(N)SC(N)=C(C#N)C1c1ccncc1`: inactive: 1.24; for `c1csc(-c2cnc3n2CCC3)c1`: inactive: 0.682. For `c1ccc(C([C@H]2[C@@H]([C@]([C@H]3(N2C=Cc2c3cccc2))(C#N)C#N)c2ccccc2)=O)cc1` the value was inactive: 1.23; for `O=S(=O)(Nc1ccc2c(c1)OCCO2)c1cccs1`, inactive: 1.13. `O=[N+]([O-])c1ccc2nc3c(nc2c1)-c1cccc2cccc-3c12`: the “cell-surface Lgr5 expression” value is inactive: 0.715. The same measure for `CS(=O)(=O)N(CCC#N)Cc1ccco1`: inactive: 1.01; for `c1coc(CSc2ccc(-n3cnnn3)cc2)c1`: inactive: 0.952; for `Cc1[nH]nc2c1C1(CCN(C(C)C)CC1)C(C#N)=C(N)O2`: inactive: 1.14.

`Cn1cc(C(N)=O)c(N)n1`: the “cell-surface Lgr5 expression” value was inactive: 1.26. On to `O=c1ccoc2c(Cl)cc(Cl)cc12`, for which the “cell-surface Lgr5 expression” value was inactive: 1.6. With `CN1C(=O)/C(=C2\SC(=S)N(CC3CCCO3)C2=O)c2ccccc21` (stereo not given), the “cell-surface Lgr5 expression” value is inactive: 1.47. For `N#CC1=C2CCCCC2C2(CCCCC2)C(C#N)(C#N)C1=O` (stereo not given) the value was inactive: 1.36. Regarding `COC(=O)C(C(=O)NCC1CCCO1)C1CCCC1` (stereo not given), the “cell-surface Lgr5 expression” value was inactive: 1.21. The same measure for `CC1CCCCC1NC(=O)C(=O)NCC1CCCO1` (stereo not given): inactive: 1.27; for `Br.Nc1ccc(OCC(O)C[n+]2ccccc2)cc1.[Br-]` (stereo not given): inactive: 1.38. The same measure for `Cc1cc2c(cc1C)-c1c(ss/c1=N/c1ccc(S(N)(=O)=O)cc1)C(C)(C)N2`: inactive: 0.813.

As for `CC1CCc2onc(C(=O)O)c2C1` (stereo not given), the “cell-surface Lgr5 expression” value is inactive: 1.21. For `Nc1nonc1-c1noc(CCl)n1` the value was inactive: 0.865; for `CCCCCCCCC1CCCC1=O` (stereo not given), inactive: 0.976. The same measure for `c1ccc2ncc(-c3ccc4ccccc4n3)cc2c1`: inactive: 1.14.

As for `Cc1cc(C)c(CO)c(C)c1/C=N\O`, the “cell-surface Lgr5 expression” value was inactive: 1.08. For `CC(C)COC(=O)C(C)Nc1n[nH]c(=S)[nH]c1=O` (stereo not given) the value was inactive: 0.895; for `CC(=O)c1sc2nc(=O)c(C)nn2c1C`, inactive: 1.14. Take `Nc1nonc1C(=O)N1CCOCC1`: the “cell-surface Lgr5 expression” value was inactive: 1.31. The same measure for `Cn1nnnc1SCc1nc(N)nc(N2CCCCC2)n1`: inactive: 1.23. The same measure for `O/N=C\c1cc(Br)c(Sc2ccc(Cl)cc2)o1`: inactive: 1.02; for `C1(/C(CC(CC1=O)(C)C)=O)=C(\NCCN1CCNCC1)C`: inactive: 1.11; for `CS(=O)(=O)c1nc2ccccc2[nH]1`: inactive: 1.31. For the compound `CC(C)COC(=O)CCNc1n[nH]c(=O)[nH]c1=O`, the “cell-surface Lgr5 expression” value is inactive: 1.22. The same measure for `Cc1cc(Br)c(S(=O)(=O)C(C)(C)C)c(Br)c1`: inactive: 1.1; for `c1cc2cc(CNC3CC3)ccc2[nH]1`: inactive: 1.41. The same measure for `COc1ccc(/C=N\N=C2N=C(O)/C(=C\c3ccc(OC)cc3)S/2)cc1`: inactive: 1.13; for `Nc1nc(-c2cccnc2)nc2ccccc12`: inactive: 1.49. `Cc1cc(C)nc(Oc2ccc(Br)cc2Br)n1`: the “cell-surface Lgr5 expression” value was inactive: 1.07. Turning to `Cc1cc(C)nc(S)n1.Cl`, the “cell-surface Lgr5 expression” value is inactive: 1.02.

On to `SC1=NC2(CCCC2)C2=C(CCC2)N1`, for which the “cell-surface Lgr5 expression” value is inactive: 1.07.

As to `CN(CCOc1ccccc1)S(=O)(=O)c1ccc2oc3ccccc3c2c1`, the “cell-surface Lgr5 expression” value is active: 2.63. The same measure for `Nc1nnc(CCC(=O)O)s1`: inactive: 1.24; for `COC(=O)C(NC(=O)C(F)(F)F)(c1cccn1C)C(F)(F)F` (stereo not given): inactive: 1.01; for `C#CC(C)(C)OC(=O)C1C2C=CC(C2)C1C(=O)OCC(=C)Cl` (stereo not given): inactive: 0.943. The same measure for `CS(=O)(=O)Nc1ccc(F)cc1F`: inactive: 1.11. As for `O=c1[nH]c(=O)c2nc3ccccc3nc2[nH]1`, the “cell-surface Lgr5 expression” value is inactive: 1.24. Regarding `COC(=O)Cn1c(=O)n(C)c2c(=O)n(C)c(=O)n(C)c21`, the “cell-surface Lgr5 expression” value is inactive: 1.2. The same measure for `O=Cc1ccc(N2CCCC2)c([N+](=O)[O-])c1`: inactive: 1.05; for `OCCOc1c(Cl)cc(Cl)c2cccnc12`: inactive: 0.896. The same measure for `Cc1[nH]nc2c1C1(CCC3(CC1)OCCO3)C(C#N)=C(N)O2`: inactive: 1.25; for `NNc1nnc2c(n1)[nH]c1ccccc12`: inactive: 1.9. As for `O=C1N=C(c2ccccc2)C(c2ccccc2)N1` (stereo not given), the “cell-surface Lgr5 expression” value was inactive: 1.2. For the compound `Clc1nsnc1N1CCOCC1`, the “cell-surface Lgr5 expression” value was inactive: 1.28. The same measure for `Cn1cnnc1SCCC(=O)O`: inactive: 0.999.

`CCn1ncc(Cl)c1C(=O)NC(Cn1cccn1)C(C)(C)C` (stereo not given): the “cell-surface Lgr5 expression” value is inactive: 1.08. Consider `CN(C)c1ccc2nc3ccc(=O)cc-3sc2c1`, for which the “cell-surface Lgr5 expression” value is inactive: 0.998.

Take `Nc1ccc2cc3ccc(N)cc3nc2c1`: the “cell-surface Lgr5 expression” value is inactive: 0.628. On to `CCOC(=O)/C(C#N)=C\Nc1cnc(C)o1`, for which the “cell-surface Lgr5 expression” value is inactive: 1.08. The same measure for `NS(=O)(=O)c1ccc2oc3ccccc3c2c1`: inactive: 1.36. `CN(/N=C/c1ccc(Cl)cc1)C1=NS(=O)(=O)c2ccccc21`: the “cell-surface Lgr5 expression” value was inactive: 1.57. For the compound `COc1cc([N+](=O)[O-])ccc1[O-].O.[K+]`, the “cell-surface Lgr5 expression” value was inactive: 1.24. The same measure for `CC1(C)C2CCC(C2)C1(C)NC(=O)CNCCCN1CCOCC1` (stereo not given): inactive: 1.49; for `OCC1OC(Nc2ccc(Br)cc2)C(O)C1O` (stereo not given): inactive: 0.903. The same measure for `CSc1nc(N)c(C#N)cc1C#N`: inactive: 0.836. Turning to `O=S(=O)(Nc1ncccn1)c1ccc(-n2cccc2)cc1`, the “cell-surface Lgr5 expression” value was inactive: 0.992. For `Cc1cc(N)nc(SC(C)CN(C)C)n1` (stereo not given) the value was inactive: 0.939; for `CSc1nsc(SC)c1C(=O)NCCCn1nc(C(F)(F)F)c(Cl)c1C`, inactive: 1. Consider `O=S(=O)(Nc1ccc2c(c1)OCCO2)c1ccc2ccccc2c1`, for which the “cell-surface Lgr5 expression” value is inactive: 1.17. The same measure for `COc1ccc2cc3[n+](cc2c1OC)CCc1cc2c(cc1-3)OCO2`: inactive: 1.17; for `c1ccc2c(c1)-c1ccccc1C21SCCCS1`: inactive: 1.34. For `Fc1ccc(-c2nnc(-c3ccc(Cl)cc3Cl)o2)cc1` the value was inactive: 1.06; for `N#C/C(=C/c1cccs1)C(N)=S`, inactive: 0.92; for `CN1CCN(C(=O)C2C3C=CC(C3)C2C(=O)O)CC1` (stereo not given), inactive: 1.1. Take `c1cn(-c2ccc(N3CCCCC3)nn2)cn1`: the “cell-surface Lgr5 expression” value was inactive: 0.957. As for `CC1(C2CC(C(F)(F)F)n3nc(C(=O)O)cc3N2)CC1` (stereo not given), the “cell-surface Lgr5 expression” value is inactive: 1.23. For `C#CC[N+](C)(C)CC(=O)c1ccccc1.[Br-]` the value was inactive: 0.925; for `Cn1cc(S(=O)(=O)Nc2ccc(Cl)c(Cl)c2)cn1`, inactive: 1.2. `C=CCNC(=S)NC1c2ccccc2Oc2ccccc21`: the “cell-surface Lgr5 expression” value was inactive: 0.605.

For the compound `Cc1ncn(C23CC4CC(CC(C(=O)O)(C4)C2)C3)n1`, the “cell-surface Lgr5 expression” value is inactive: 1.09. For `CN(C)c1ccc(/C=N/NC(=S)N/N=C/c2ccc(N(C)C)cc2)cc1`, the “cell-surface Lgr5 expression” value is inactive: 0.865.

With `Cn1c(=N)n(CC(=O)C23CC4CC(CC(C4)C2)C3)c2ccccc21`, the “cell-surface Lgr5 expression” value was inactive: 1.35.

On to `Nc1ccc2c(c1)COCO2`, for which the “cell-surface Lgr5 expression” value was inactive: 1.18. `Oc1ccc(-c2cc(C(F)(F)C(F)F)on2)cc1`: the “cell-surface Lgr5 expression” value is inactive: 1.08. Regarding `CC(C)OC(=O)CCNc1n[nH]c(=O)[nH]c1=O`, the “cell-surface Lgr5 expression” value is inactive: 1.25. For `CC1=CC(C)(C)N(S(=O)(=O)c2ccc(C)cc2)c2cc(C)ccc21` the value was inactive: 1.52. The same measure for `Cn1cccc1/C=N\N1CCN(C2c3ccccc3-c3ccccc32)CC1`: inactive: 1.42.
